We go through one substance from article PMC5744018.

The target of this experiment is T1, ANK6 (amino acid residues 21-174) fused to the GAL4 DNA-binding domain (Arabidopsis thaliana) (UniProt Q9FNP4).
T1 sequence: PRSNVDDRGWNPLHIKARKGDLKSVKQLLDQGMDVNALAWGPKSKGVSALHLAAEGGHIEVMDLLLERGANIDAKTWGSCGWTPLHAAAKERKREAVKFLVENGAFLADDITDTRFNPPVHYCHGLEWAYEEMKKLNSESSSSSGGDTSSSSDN
As to the kind of experiment: two-hybrid; directed test; AH109 cotransformed with pGADT7 (RPS9M CDS and truncated variants) and pGBKT7 (ANK6) constructs; growth on SD-LWHA, 30°C, 2-3 days.

These are yes or no findings as the source states them, for the method shown. Binding can be weak; no strength is given. Tags and fused reporters may be left off the sequences shown.

As to “C-terminus Ribosomal_S9 domain of RPS9M fused to the GAL4 activation domain (Arabidopsis thaliana) (domain or fragment)”, the binding result is “binds”.
